The text below walks through data of PMC8113555.

This assay deals with TEBP-2::GFP (Telomere-Binding Protein-2, T12E12.3) (C. elegans) (UniProt Q22429). In words: affinity purification with mass spectrometry; IP of TEBP-2::GFP with GFP-trap magnetic agarose beads from embryo and young adult extracts, quadruplicates, quantitative MS; wash buffer 10 mM Tris/HCl pH 7.5, 150 mM NaCl, 0.5 mM EDTA; 4 °C; also with Sm nuclease.

Results are given in words; binding and its absence hold for the method and conditions named. Binding seen in cells or lysates may run through a third protein. These calls come from enrichment with a bait or labelling near it, and not all partners need be listed.

B1: POT-1 (protein, UniProt P42001 1-400)
chain: MQYTYQHIQDLVPGPTPQNFYGKIIFIKKKINQIVVLIKDETQSIYLRVIPKEDQELEFQLRQVVRVHRCKIQSILNSKEGIAQIGLFGCHLIAWSQSGKVDNPVIISSRSWTKSDEDSERLQTLRKLGKSRRKSGRKTSVDTMANKLIERREAMFADTFIKSLFNKIALSRKEHLSRNARELFYHRPGDIVETQNLLEIDDSWFNDENSEQFVQYVLNCTTCHVEYNHVEYAQNNIPTNCRFCQEAMESFHAAFRIRISIETYGVFLTIPLELIKTELDICEDWDSESNIVEEEEKVTRFKKNIQEKVRDASIVHIKGISSLLLIIMLNINSISLVNNITENKRILLQKSNVPSSLQLKILITPFVIVVVRFFGITWIYSGSSCIEEVLNLIDNCSRRR
With B1, the binding result is on record as “binds”.
